Measured values taken from paper doi:10.1101/2024.06.25.600532.

Target: Flag-tagged LYAR (UniProt Q9NX58)
Assay: affinity purification with mass spectrometry

Molecule | binding
MEP50 (from UniProt Q9BQA1 1-342) | binds
Fibrillarin (FBL) (protein, UniProt P22087 1-321) MKPGFSPRGGGFGGRGGFGDRGGRGGRGGFGGGRGRGGGFRGRGRGGGGGGGGGGGGGRGGGGFHSGGNRGRGRGGKRGNQSGKNVMVEPHRHEGVFICRGKEDALVTKNLVPGESVYGEKRVSISEGDDKIEYRAWNPFRSKLAAAILGGVDQIHIKPGAKVLYLGAASGTTVSHVSDIVGPDGLVYAVEFSHRSGRDLINLAKKRTNIIPVIEDARHPHKYRMLIAMVDVIFADVAQPDQTRIVALNAHTFLRNGGHFVISIKANCIDSTASAEAVFASEVKKMQQENMKPQEQLTLEPYERDHAVVVGVYRPPPKVKN | binds

No constants are given. Whether binding was seen depends on the method and setting. Binding seen in cells or lysates may run through a third protein. These calls come from enrichment with a bait or labelling near it, and not all partners need be listed.
